pKi: −log10 of the molar value. For at least one compound, name, drawing or mass did not settle the structure. Some entries share one result that the patent states for a list of compounds.
Target: T1, EPSP Synthase (S. pneumoniae) (Streptococcus pneumoniae serotype 4, UniProt Q9S400)
T1 construct: made in house
Assay: EPSPS kinetic assay, fluorescence coupled detection of inorganic phosphate release
Format: biochemical
Description: All chemicals including ATA and its salt forms are from Aldrich. SKF-26488-W3 was isolated as a high-throughput screen hit against EPSPS. Escherichia coli MurA (Marquardt, et al., J. Bacteriol., Vol. 174: 5748-5752 (1992)) and Streptococcus pneumoniae EPSPS (Du, et al., Eur. J. Biochem., Vol. 267: 222-227 (2000)) were expressed and purified as described previously.
The assays for both EPSPS and MurA are based on the detection of inorganic phosphate release. A fluorescence coupled assay was used for EPSPS and was performed in 100 mM HEPES, pH 7.0, 1 mM NH4Cl, 100 mM KCl. (Du, et al., Eur. J. Biochem., Vol. 267: 222-227 (2000)). MurA was assayed in 50 mM HEPES, pH 7.5, 1 mM DTI using the Malachite Green reagent (Lanzetta, et al., Anal. Biochem., Vol. 100: 95-97 (1979)). The Ki values were determined with fixed concentration of one substrate and varying concentrations of the other substrate and inhibitor. Data were analyzed using GraFit v4.09 (Erithacus Software Ltd.).

By UniProt entry, the sequences of proteins in these tests, tags left out. Where a name states a change or a piece, a line headed by the entry shows the natural chain unless it says otherwise.
UniProt Q9S400: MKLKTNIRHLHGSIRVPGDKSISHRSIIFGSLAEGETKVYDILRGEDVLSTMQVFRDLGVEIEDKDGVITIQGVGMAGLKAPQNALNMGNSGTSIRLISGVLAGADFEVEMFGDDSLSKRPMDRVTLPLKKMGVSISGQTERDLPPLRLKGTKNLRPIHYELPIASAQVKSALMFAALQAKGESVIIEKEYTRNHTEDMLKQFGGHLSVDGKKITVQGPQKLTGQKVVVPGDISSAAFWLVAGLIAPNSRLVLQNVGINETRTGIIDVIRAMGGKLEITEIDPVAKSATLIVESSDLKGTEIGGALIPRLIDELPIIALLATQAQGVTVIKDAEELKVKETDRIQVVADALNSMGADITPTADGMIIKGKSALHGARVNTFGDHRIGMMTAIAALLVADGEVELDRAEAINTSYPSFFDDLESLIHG

SMILES: O=C(O)C1=CC(=C(c2ccc(O)c(C(=O)O)c2)c2ccc(O)c(C(=O)O)c2)C=CC1=O [SKB-26488-W3, aurin tricarboxylic acid]
- Inhibition type vs. PEP (EPSP synthase, varied substrate PEP): noncompetitive inhibitor versus PEP
- Inhibition type vs. S3P (EPSP synthase, varied substrate S3P): competitive inhibitor versus S3P

SMILES: N.N.N.O=C(O)C1=CC(=C(c2ccc(O)c(C(=O)O)c2)c2ccc(O)c(C(=O)O)c2)C=CC1=O [ATA ammonium salt]
- pKi (EPSPS, competitive vs. S3P, range given for ATA and its sodium and ammonium salts together): 5.35 to 5.55

— US20050020501A1, “Methods of modulating the activity of mura” (SmithKline Beecham Corporation and SmithKline Beechm p.l.c., priority 2000, published 2005)
